B1: PfBTP1 (protein, UniProt C6KSW1 1-650)
chain: MKNTNKNNNIQSDTLSVNINNSNDFNKVLHEIKKKETQNDKRNNSSKRNVKPQIKTKKDNDTRNVTKEYEKNNIKNVRSLSNNKNNTTYLKKQNIEDDEDEKNIKFYDTPIFPYITSLILDYENDNKKPEPVSNVIESKEQIKRYNSHNKIERKNTIYDIYEKTLKKLSIQEENVVEKNEEHLYNSKSLEHKKSTTSEGSKIKSSVINTNISNNSFDESSSNDISVIQQKNHETKKDTKKPKQYHINDDTLRNDSNNSNYDHNNTCESINSSNEYNNNYKNKVHIYENQKEKGENEKETQNMKQQQYNNNVIKTNEKNHKVTNAFDDYYIDEEHFRQRSITIMQDKKKKKKNDRSYSLDSKSIISDELKEKNNEKEDLKKKEIKNNEEKLNTNKNESNQNSSHENIYYQKKTSQNENINHSLNDQTYKIKKKKSYDKQYTQKLYTRSDITTTDSDSSINEKLNISYEIFKSKNENKMFSIDQEKKNKDSLLKVVNSKNILNIRKILRIMRELYIGFIGLQLIYFITYILFGNNNVYLIQIISMSCTLFSLLDANYHGYLLNGFIDICIAIFLNIAILQNISGFKTLQSNDVLKNITISNIVLLYFFSAFSFLNSYFIYKLHSLEKKSINYVIRNIESKTEKNIKKSVSTK
B2: PF3D7_1351700 (PfIMC1f) (protein, UniProt A0A5K1K988 1-1318)
chain: MLKNTTKCDNIIKREQNRVLLQKKLSKDSVTSTKFCDSSEEREGSSNTSSNVSFKILEESNITKNLNEDKSYSFECDKEETLRKDYKKLNKKNSNKINKSNSLNQTNEEIIRDKTSVQNKKIHHEVLEEQEKDNSIKLNKNKVGIYFDNTTNSINNNIQKDNSDTLGTESYSTHKSNLNEVLNVSGDNSKHLLAPISSNDIIKKEDSNIYYNLNENSTYYYPNNNSKNYINKFLNNYNTPNVVDSFSYCGTNFHSGNISTSYNDRYLNGYSNNYMINNSINSSINSSINNSINSSINNSINNSIDNSINNSINNSISHFNTSYPNSNNNNNNNNNNLNYSMSNNFNSYPNNILNYNLNNQFINAYPINNLNYNSTSHFNMYPNKNMLINDTLNNTNSYINNMKYSGNNIMSEQNNILNETEFIGSYHNSSAPIISNQENNISNLGNTSAYVNDNTTYGNISGRNMYSGVINYENITDDNKMIKSDNNVVPTINTFYSSKNIGESTNGNVVVRKNYVDNTYDNNSNEEHSIENKEIYKSKSVSVSENETIKNDNVSVSVSEKVSSHTDYSRAKHSSHVVDKRIVHEGFDTIKIPKYREVEIVEKIVEVPVVHKVNKYVNKYEIKEVEKVVKKHINKYVETKIEVPELHYQDKIVEVPELQEVIKIIEKPEIKERIIYKNKIETKIIPKYIEVPVVKIVNRYEEYDDVGEVVKAVPVKKIVEIPNEIIKKVKVPVKKIIERPNYVPVIKYRDIPIEKIRYVPKIETVELVKKIPKIIDVPVPVKVPKIKVIDKPFYVNKYVDKPVVIPVSKTIKPVYKYEGKKIIEIPIHKPYLVTHDTVVNKNVENNMNSGRYSVYAKRLDLNSFDPIKRNELFNLVNKDNINFQRSMSVDDFVNNNSYVDGKEKYTDKLNENSVFNNYNGIGNKDNLDNMNKIKFTQSLNNNNNMSTTKHSNMEVSSQGYGYINDGKENMYNNYNNMNNLNIKGSEDASFHTKKSIFDNLNNDNINNINNNNNINKNYEENRKSSYGTSIHNTPNILPNRHNSMYPSNGNHMGEFISLKSFQNKKYSNSTIVDSEKAMNYTYGNFLSPTGVYNNGLYMENKDKNNMVYENNKKDMNTINYNNNNNNNNNNNIYYSANNKSPNNIHKLNMSNSMMKTNTFGNYPNIYRNSYMENKPEDMYLNRYTTKSNIINNNNNNNNNNNNSNNSNNSNYFYNGRNSSINNAFAYKQYYDSNKNGNNQHRLSHPSNMVHNINNSRTRSPSTCSADGISAYVVEYVGDENIMYNNGNTPFSSNGLLNNLGKTMEGSNYSFNGVPVNQK
B3: PfMORN1 (protein, UniProt Q8IJ93 1-364)
chain: MTEVTHCYNGNIKDGLFHGFGILIYSQHEKYEGDFVYGKREGRGKFTYADGATYEGEWVDDKIHGKGIANFVSGNIYEGEWENGKINGFGMLCYNNGDKYEGEWLDGKMHGRGTYTYEDGDVYIGEWKNDKRHGKGCVKYKGNENKIAETYEGDWVDGKMQGRGTYFFADGGIYEGDWVDGKMEGKGVYKYLNGNKYEGEWINDMKNGYGTLAYVNGELYEGYWKNDKVHGKGTLTYSKGDKYIGEWKYAKKCGEGELIYASGDKFKGQWKNDKANGYGILLYNNGNKYEGEWLDDHRHGMGTFTCKEDGTIYSGHFQFNRKHGKGTLTFVNGHILQGIWNSGLLEKVINYELTPSSPWNDPDL

Sequences of proteins named here, by UniProt entry; tags and fusion partners are left off.
UniProt Q9U0K8: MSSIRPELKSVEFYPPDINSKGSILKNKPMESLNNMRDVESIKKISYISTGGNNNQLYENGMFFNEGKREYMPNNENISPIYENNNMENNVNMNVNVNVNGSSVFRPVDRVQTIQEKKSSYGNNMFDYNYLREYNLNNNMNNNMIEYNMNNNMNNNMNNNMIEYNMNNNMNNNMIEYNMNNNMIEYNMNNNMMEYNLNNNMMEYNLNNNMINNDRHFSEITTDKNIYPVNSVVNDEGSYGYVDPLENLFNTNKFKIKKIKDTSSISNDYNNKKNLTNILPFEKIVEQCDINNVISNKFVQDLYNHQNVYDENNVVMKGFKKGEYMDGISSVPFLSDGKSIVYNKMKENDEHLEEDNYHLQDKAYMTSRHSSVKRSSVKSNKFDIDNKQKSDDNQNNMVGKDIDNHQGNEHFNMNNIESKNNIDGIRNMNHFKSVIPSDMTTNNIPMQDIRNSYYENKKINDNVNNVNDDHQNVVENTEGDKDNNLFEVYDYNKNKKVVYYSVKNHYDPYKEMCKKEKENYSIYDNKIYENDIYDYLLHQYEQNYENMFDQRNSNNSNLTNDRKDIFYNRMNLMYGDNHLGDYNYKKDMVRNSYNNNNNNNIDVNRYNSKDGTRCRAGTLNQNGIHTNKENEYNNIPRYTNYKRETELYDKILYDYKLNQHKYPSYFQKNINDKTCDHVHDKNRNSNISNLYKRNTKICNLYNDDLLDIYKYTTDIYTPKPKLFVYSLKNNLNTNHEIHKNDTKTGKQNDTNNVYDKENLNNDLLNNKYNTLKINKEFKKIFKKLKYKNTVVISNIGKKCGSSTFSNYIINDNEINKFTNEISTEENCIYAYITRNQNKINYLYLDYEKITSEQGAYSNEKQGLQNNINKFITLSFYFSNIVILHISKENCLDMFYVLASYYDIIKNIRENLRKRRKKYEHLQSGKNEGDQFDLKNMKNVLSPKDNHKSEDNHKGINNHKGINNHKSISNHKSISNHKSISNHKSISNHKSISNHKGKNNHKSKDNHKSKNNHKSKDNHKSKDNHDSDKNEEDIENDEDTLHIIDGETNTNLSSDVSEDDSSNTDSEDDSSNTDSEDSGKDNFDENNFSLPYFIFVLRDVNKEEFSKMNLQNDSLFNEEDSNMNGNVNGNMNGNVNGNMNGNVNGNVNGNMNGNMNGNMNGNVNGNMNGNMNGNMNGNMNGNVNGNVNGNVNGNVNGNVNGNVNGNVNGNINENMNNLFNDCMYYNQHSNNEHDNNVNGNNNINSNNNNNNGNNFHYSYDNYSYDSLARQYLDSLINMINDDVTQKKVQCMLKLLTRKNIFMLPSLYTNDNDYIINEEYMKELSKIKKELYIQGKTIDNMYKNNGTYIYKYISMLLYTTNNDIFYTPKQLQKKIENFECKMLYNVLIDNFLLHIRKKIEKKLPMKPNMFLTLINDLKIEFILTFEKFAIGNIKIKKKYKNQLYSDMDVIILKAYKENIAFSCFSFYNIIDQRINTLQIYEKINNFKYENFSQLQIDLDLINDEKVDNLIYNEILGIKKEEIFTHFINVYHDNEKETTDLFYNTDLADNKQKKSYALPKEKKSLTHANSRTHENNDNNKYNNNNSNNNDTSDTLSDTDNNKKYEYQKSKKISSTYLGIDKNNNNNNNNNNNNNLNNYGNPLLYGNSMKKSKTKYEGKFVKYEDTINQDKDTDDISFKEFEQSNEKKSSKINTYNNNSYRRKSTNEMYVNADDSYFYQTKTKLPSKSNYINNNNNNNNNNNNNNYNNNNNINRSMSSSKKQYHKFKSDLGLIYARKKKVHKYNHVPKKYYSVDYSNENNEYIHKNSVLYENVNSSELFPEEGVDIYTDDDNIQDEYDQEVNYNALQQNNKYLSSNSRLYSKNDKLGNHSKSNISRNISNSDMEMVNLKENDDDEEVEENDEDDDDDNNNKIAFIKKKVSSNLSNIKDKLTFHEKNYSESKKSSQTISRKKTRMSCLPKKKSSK
UniProt Q8ILA2: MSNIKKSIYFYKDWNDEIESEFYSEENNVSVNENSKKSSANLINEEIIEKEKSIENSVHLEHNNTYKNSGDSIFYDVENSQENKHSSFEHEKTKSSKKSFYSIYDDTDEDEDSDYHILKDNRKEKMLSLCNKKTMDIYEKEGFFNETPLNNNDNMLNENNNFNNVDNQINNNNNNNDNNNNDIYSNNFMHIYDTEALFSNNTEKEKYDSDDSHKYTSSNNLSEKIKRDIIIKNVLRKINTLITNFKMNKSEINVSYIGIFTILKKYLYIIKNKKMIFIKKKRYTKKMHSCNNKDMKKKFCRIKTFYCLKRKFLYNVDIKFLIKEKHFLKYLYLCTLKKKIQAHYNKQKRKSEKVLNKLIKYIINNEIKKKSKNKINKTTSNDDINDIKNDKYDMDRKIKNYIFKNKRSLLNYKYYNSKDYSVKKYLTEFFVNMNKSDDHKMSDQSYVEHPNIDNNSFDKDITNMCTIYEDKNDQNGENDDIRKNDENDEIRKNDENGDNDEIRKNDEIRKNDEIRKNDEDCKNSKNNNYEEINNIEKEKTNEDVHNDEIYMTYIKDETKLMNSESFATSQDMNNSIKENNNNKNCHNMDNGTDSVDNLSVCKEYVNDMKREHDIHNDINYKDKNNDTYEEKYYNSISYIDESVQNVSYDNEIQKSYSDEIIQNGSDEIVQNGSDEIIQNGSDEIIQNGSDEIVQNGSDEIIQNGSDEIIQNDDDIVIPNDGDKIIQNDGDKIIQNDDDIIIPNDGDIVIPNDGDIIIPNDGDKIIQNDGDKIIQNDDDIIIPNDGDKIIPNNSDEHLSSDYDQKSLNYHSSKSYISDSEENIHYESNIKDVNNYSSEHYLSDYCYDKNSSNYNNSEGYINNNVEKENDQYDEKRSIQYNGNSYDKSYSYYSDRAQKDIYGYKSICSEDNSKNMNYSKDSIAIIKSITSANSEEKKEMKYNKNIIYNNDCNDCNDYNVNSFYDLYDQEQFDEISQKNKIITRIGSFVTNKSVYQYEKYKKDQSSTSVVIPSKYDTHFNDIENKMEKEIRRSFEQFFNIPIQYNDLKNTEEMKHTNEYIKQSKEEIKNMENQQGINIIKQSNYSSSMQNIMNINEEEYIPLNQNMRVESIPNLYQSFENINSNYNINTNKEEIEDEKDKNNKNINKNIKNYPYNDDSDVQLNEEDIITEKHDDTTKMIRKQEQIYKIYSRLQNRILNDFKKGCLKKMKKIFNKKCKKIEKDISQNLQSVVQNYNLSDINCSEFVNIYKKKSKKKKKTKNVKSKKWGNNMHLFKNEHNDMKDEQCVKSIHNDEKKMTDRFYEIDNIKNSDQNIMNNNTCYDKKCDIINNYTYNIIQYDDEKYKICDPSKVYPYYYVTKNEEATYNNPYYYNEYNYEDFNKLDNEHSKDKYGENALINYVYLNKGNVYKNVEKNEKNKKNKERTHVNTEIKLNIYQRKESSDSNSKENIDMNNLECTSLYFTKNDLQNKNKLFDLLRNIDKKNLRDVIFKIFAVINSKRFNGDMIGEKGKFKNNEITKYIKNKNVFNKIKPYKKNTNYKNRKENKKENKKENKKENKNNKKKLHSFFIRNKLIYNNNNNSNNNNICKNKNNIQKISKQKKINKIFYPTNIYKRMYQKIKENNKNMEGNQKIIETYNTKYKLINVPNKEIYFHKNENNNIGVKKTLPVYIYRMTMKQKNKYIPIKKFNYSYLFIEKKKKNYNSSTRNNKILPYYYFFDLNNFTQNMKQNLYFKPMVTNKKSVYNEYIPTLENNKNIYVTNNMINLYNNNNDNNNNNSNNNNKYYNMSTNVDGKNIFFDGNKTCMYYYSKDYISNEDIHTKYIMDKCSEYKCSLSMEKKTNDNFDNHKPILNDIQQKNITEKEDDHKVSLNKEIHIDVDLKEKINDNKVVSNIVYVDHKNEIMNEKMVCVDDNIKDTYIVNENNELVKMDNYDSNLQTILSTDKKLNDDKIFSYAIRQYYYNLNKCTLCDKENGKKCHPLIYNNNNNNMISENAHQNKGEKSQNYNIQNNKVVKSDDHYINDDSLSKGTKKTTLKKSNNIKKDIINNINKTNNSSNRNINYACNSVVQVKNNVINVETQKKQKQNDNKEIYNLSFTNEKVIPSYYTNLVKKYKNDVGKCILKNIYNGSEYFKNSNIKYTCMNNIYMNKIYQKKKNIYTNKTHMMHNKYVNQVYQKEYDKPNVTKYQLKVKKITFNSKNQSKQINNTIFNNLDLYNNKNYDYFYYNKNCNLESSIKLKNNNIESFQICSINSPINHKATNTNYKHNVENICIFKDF
UniProt C6S3C9: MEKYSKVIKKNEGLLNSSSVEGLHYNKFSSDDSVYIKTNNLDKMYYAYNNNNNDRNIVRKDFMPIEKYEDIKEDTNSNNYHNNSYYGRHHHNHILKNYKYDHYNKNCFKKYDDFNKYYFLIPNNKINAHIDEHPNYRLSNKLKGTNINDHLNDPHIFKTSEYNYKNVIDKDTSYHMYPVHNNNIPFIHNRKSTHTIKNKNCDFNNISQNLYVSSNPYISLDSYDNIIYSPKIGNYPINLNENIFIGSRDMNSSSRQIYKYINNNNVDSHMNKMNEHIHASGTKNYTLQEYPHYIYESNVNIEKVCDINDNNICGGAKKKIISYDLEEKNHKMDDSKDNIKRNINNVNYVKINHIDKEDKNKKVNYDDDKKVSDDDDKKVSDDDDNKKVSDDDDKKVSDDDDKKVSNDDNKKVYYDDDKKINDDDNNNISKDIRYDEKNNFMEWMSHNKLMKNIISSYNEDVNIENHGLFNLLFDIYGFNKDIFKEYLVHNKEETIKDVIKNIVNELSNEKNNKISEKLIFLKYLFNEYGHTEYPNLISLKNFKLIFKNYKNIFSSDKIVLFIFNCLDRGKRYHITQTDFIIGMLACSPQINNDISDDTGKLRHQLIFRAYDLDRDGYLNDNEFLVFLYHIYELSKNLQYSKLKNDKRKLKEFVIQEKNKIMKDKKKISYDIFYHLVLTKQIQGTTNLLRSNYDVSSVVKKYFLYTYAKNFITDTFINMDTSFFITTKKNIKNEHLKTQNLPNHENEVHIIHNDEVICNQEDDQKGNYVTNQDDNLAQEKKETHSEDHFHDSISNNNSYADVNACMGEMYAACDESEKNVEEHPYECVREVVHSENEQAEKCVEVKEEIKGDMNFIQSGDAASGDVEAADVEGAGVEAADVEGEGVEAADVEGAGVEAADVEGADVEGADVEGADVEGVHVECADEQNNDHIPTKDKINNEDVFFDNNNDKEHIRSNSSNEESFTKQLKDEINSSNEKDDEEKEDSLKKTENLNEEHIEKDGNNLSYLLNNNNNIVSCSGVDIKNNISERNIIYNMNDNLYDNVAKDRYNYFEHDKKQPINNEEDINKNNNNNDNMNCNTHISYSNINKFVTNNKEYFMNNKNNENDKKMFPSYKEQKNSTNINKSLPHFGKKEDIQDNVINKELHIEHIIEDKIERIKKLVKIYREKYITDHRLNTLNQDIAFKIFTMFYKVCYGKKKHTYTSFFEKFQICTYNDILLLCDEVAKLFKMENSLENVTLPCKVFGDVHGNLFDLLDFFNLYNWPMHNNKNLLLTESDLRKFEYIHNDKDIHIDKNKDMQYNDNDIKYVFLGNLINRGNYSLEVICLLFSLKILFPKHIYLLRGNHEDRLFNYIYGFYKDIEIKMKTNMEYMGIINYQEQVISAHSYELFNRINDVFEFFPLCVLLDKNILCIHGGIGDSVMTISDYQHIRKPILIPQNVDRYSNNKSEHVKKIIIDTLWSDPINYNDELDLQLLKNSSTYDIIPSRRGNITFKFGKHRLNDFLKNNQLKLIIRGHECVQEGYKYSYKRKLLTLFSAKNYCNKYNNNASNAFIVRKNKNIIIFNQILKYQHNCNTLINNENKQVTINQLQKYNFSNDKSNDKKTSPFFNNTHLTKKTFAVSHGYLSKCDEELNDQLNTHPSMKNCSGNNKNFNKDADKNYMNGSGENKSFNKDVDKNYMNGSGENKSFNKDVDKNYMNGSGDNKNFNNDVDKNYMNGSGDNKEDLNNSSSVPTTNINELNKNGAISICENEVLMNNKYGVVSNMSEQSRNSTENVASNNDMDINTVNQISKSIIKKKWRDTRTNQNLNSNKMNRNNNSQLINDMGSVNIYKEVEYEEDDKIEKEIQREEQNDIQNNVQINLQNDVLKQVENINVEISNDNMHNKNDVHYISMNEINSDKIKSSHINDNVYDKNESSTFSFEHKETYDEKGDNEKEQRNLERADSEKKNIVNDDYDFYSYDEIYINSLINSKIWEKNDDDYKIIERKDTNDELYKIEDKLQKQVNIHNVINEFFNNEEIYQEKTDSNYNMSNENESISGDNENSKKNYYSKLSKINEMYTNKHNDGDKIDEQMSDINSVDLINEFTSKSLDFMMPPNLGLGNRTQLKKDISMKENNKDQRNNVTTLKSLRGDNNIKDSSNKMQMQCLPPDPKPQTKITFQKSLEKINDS

Data on seven molecules can be found in paper PMC6522492.

These are yes or no findings as the source states them, for the method shown. In cells and extracts the contact can be indirect. Here binding means that the protein was enriched with, or labelled near, the bait; the list need not be complete.

This assay addresses P. falciparum coordinator of nascent cell detachment (PfCINCH), PF3D7_0407800, with the spaghetti monster V5 tag at its carboxy terminus (Plasmodium falciparum (3D7)) (UniProt Q9U0K8). Put plainly: affinity purification with mass spectrometry; RIPA lysate of ~48 hpi PfCINCH^smV5-Tet schizonts on magnetic anti-V5 beads, 3 h at 4 °C, three RIPA washes, on-bead digestion; two biological replicates; control line PF3D7_1419700^smV5.
As to “P. falciparum basal complex protein 1 (PfBCP1), PF3D7_1436200 (from UniProt Q8ILA2 1-2269)”, the binding entry is listed as “binds”. As to “P. falciparum basal complex transmembrane protein 2 (PfBTP2), PF3D7_0704100 (from UniProt C0H4K4 1-3559)”, the binding result was “binds”. Take “PF3D7_1018200 (PfPPP8) (from UniProt C6S3C9 1-2166) (enzyme)”: the binding entry was “binds”.

Consider “Pf3D7_1229800/PfMyoJ (from UniProt A0A144A488 1-2274)”, for which the binding result was “binds”. The same measure for B1: “binds”; for B2: “binds”.

On to B3, for which the binding entry is listed as “binds”.
